Experimental data reported in patent US20040086901A1, “Database for analyzing gene function and method of analyzing gene function by dspa” (priority 2000, published 2004).
No dose or concentration is given here for some results. Non-standard residues stand in square brackets, D forms with d. Residues, ends and D or L forms follow the SMILES beside them. Nle = CCCC[C@H](N)C(=O)O

Legend:
Format in all cases: cell-based
cells expressing per-1 = assay: DSPA drug sensitivity pattern, per-1 cells; conditions: drug sensitivity pattern of F25 + substance vs per-1
[1] = test system: cells expressing CD44/H-CAM; assay: DSPA drug sensitivity pattern, CD44/H-CAM cells; conditions: drug sensitivity pattern of F25 + substance vs CD44/H-CAM
cells expressing CD44/3E = assay: DSPA drug sensitivity pattern, CD44/3E cells; conditions: drug sensitivity pattern of F25 + substance vs CD44/3E
cells expressing CD44/3s = assay: DSPA drug sensitivity pattern, CD44/3s cells; conditions: drug sensitivity pattern of F25 + substance vs CD44/3s
[2] = test system: cells expressing Jagged-1; assay: DSPA drug sensitivity pattern, Jagged-1 cells; conditions: drug sensitivity pattern of F25 + substance vs Jagged-1
cells expressing p94-WT = assay: DSPA drug sensitivity pattern, p94-WT cells; conditions: drug sensitivity pattern of F25 + substance vs p94-WT
FBRCA1-13 cells = assay: DSPA drug sensitivity pattern, FBRCA1-13 cells; conditions: drug sensitivity pattern of F25 + substance vs FBRCA1-13
FMDM2hwt-6 cells = assay: DSPA drug sensitivity pattern, FMDM2hwt-6 cells; conditions: drug sensitivity pattern of F25 + substance vs FMDM2hwt-6
p27-3 cells = assay: DSPA drug sensitivity pattern, p27-3 cells; conditions: drug sensitivity pattern of F25 + substance vs p27-3
MM1 cells = assay: DSPA drug sensitivity pattern, MM1 cells; conditions: drug sensitivity pattern of F25 + substance vs MM1
AMY1 cells = assay: DSPA drug sensitivity pattern, AMY1 cells; conditions: drug sensitivity pattern of F25 + substance vs AMY1
Max cells = assay: DSPA drug sensitivity pattern, Max cells; conditions: drug sensitivity pattern of F25 + substance vs Max
TERT-DN cells = assay: DSPA drug sensitivity pattern, TERT-DN cells; conditions: drug sensitivity pattern of F25 + substance vs TERT-DN
PTEN-G129R cells = assay: DSPA drug sensitivity pattern, PTEN-G129R cells; conditions: drug sensitivity pattern of F25 + substance vs PTEN-G129R
Bcl-2 cells = assay: DSPA drug sensitivity pattern, Bcl-2 cells; conditions: drug sensitivity pattern of F25 + substance vs Bcl-2
per2 cells = assay: DSPA drug sensitivity pattern, per2 cells; conditions: drug sensitivity pattern of F25 + substance vs per2
per3 cells = assay: DSPA drug sensitivity pattern, per3 cells; conditions: drug sensitivity pattern of F25 + substance vs per3
Cyclin D1-11 cells = assay: DSPA drug sensitivity pattern, Cyclin D1-11 cells; conditions: drug sensitivity pattern of F25 + substance vs Cyclin D1-
STAT2-4 cells = assay: DSPA drug sensitivity pattern, STAT2-4 cells; conditions: drug sensitivity pattern of F25 + substance vs STAT2-4
Bad-22 cells = assay: DSPA drug sensitivity pattern, Bad-22 cells; conditions: drug sensitivity pattern of F25 + substance vs Bad-22
FAPP-4 cells = assay: DSPA drug sensitivity pattern, FAPP-4 cells; conditions: drug sensitivity pattern of F25 + substance vs FAPP-4
FHO-6 cells = assay: DSPA drug sensitivity pattern, FHO-6 cells; conditions: drug sensitivity pattern of F25 + substance vs FHO-6
MSSP-10 cells = assay: DSPA drug sensitivity pattern, MSSP-10 cells; conditions: drug sensitivity pattern of F25 + substance vs MSSP-10

Row | SMILES | correlation coefficient (r) with per-1 (cells expressing per-1) | correlation coefficient (r) with CD44/H-CAM [1] | correlation coefficient (r) with CD44/3E (cells expressing CD44/3E) | correlation coefficient (r) with CD44/3s (cells expressing CD44/3s) | correlation coefficient (r) with Jagged-1 [2] | correlation coefficient (r) with p94-WT (cells expressing p94-WT) | correlation coefficient (r) with FBRCA1-13 (FBRCA1-13 cells) | correlation coefficient (r) with FMDM2hwt-6 (FMDM2hwt-6 cells) | correlation coefficient (r) with p27-3 (p27-3 cells) | correlation coefficient (r) with MM1 (MM1 cells) | correlation coefficient (r) with AMY1 (AMY1 cells) | correlation coefficient (r) with Max (Max cells) | correlation coefficient (r) with TERT-DN (TERT-DN cells) | correlation coefficient (r) with PTEN-G129R (PTEN-G129R cells) | correlation coefficient (r) with Bcl-2 (Bcl-2 cells) | correlation coefficient (r) with per2 (per2 cells) | correlation coefficient (r) with per3 (per3 cells) | correlation coefficient (r) with Cyclin D1- (Cyclin D1-11 cells) | correlation coefficient (r) with STAT2-4 (STAT2-4 cells) | correlation coefficient (r) with Bad-22 (Bad-22 cells) | further results
1 | CC(C)(C)C(=O)Oc1ccc(S(=O)(=O)Nc2ccccc2C(=O)NCC(=O)O)cc1 [ONO5046] | −0.05 | −0.01 | −0.04 | 0.06 | 0.42 | 0.20 | −0.07 | 0.14 | 0.37 | −0.01 | −0.18 | −0.05 | −0.28 | −0.29 | 0.14 | −0.15 | −0.01 | −0.05 | 0.30 | 0.12 | correlation coefficient (r) with FAPP-4 (FAPP-4 cells): 0.03; correlation coefficient (r) with FHO-6 (FHO-6 cells): 0.12
2 | CCCC[C@@H](C=O)NC(=O)[C@H](CC(C)C)NC(=O)[C@H](CC(C)C)NC(C)=O [ALLN] (Ac-Leu-Leu-[Nle]-aldehyde) | 0.20 | 0.00 | −0.37 | −0.50 | −0.15 | 0.32 | −0.07 | −0.27 | −0.04 | 0.23 | 0.03 | −0.08 | 0.27 | −0.09 | 0.05 | 0.24 | 0.04 | −0.55 | −0.02 | 0.03 | correlation coefficient (r) with FAPP-4 (FAPP-4 cells): −0.22; correlation coefficient (r) with FHO-6 (FHO-6 cells): 0.16
3 | CCCNC(=O)[C@H]1O[C@@H]1C(=O)N[C@H](C(=O)N1CCC[C@H]1C(=O)O)[C@@H](C)CC [CA-074] | −0.30 | 0.21 | −0.03 | 0.20 | 0.49 | 0.29 | −0.01 | 0.20 | 0.43 | 0.14 | 0.02 | 0.00 | −0.41 | −0.34 | −0.01 | −0.04 | 0.23 | 0.06 | 0.43 | 0.21 | correlation coefficient (r) with MSSP-10 (MSSP-10 cells): 0.35; correlation coefficient (r) with FAPP-4 (FAPP-4 cells): 0.12; correlation coefficient (r) with FHO-6 (FHO-6 cells): 0.20
4 | COc1cccc(-c2cc(=O)c3ccccc3o2)c1N [PD98059] | −0.16 | −0.03 | −0.26 | −0.36 | −0.01 | 0.21 | −0.56 | −0.45 | −0.08 | 0.05 | 0.21 | 0.09 | 0.29 | 0.15 | 0.02 | 0.22 | 0.06 | −0.21 | 0.15 | 0.01 | correlation coefficient (r) with MSSP-10 (MSSP-10 cells): −0.44; correlation coefficient (r) with FAPP-4 (FAPP-4 cells): −0.02; correlation coefficient (r) with FHO-6 (FHO-6 cells): −0.13
5 | CC(=O)N[C@@H](CSC(=O)[C@]1([C@@H](O)C(C)C)NC(=O)[C@H](C)[C@@H]1O)C(=O)O [lactacystin] | 0.02 | 0.01 | 0.09 | 0.04 | 0.16 | 0.44 | −0.09 | −0.11 | 0.28 | 0.39 | 0.21 | 0.08 | 0.14 | 0.09 | 0.13 | 0.25 | 0.35 | −0.13 | 0.15 | 0.32 | correlation coefficient (r) with FAPP-4 (FAPP-4 cells): −0.05; correlation coefficient (r) with FHO-6 (FHO-6 cells): 0.46
6 | O=C(O)c1cc(C(=O)O)c2c(n1)C(=O)C(=O)c1cc(C(=O)O)[nH]c1-2 [PQQ] | −0.24 | 0.09 | −0.13 | 0.01 | 0.53 | 0.20 | 0.10 | 0.40 | 0.52 | −0.03 | −0.13 | −0.06 | −0.62 | −0.30 | −0.07 | −0.20 | 0.09 | 0.11 | 0.44 | 0.08 | correlation coefficient (r) with MSSP-10 (MSSP-10 cells): 0.50; correlation coefficient (r) with FAPP-4 (FAPP-4 cells): 0.12; correlation coefficient (r) with FHO-6 (FHO-6 cells): 0.30
7 | C[C@@H](N)[C@H]1CC[C@H](C(=O)Nc2ccncc2)CC1 [Y27632] | 0.16 | 0.01 | 0.00 | −0.09 | −0.06 | 0.25 | −0.04 | −0.17 | 0.36 | 0.10 | 0.27 | 0.19 | 0.13 | 0.35 | 0.08 | 0.28 | 0.23 | −0.01 | 0.04 | 0.12 | correlation coefficient (r) with FAPP-4 (FAPP-4 cells): −0.29; correlation coefficient (r) with FHO-6 (FHO-6 cells): 0.10
